Reference: patent US20170106084A1
Residue numbers refer to the chain shown, from its start. Results are given in words; binding and its absence hold for the method and conditions named. For some of these results: Binding calls can cover weak binding; strength is not graded here.

B1: VH00/VL00 (antibody, V domains shown)
VH: QSVEESGGRLVTPGTPLTLTCTVSGFSLSSNAINWVRQAPGKGLEWIGYIAVSGNTYYASWAKGRFTISKASTTVDLKMTSPTAEDTGTYFCGKSNIWGPGTLVTVSL
VL: AQVLTQTTSPVSAAVGSTVTISCQSSQSVRTNKLAWFQQKPGQPPKRLIYSASTLDFGVPSRFSASGSGTQFTLTISDVQCDDAATYYCLGYFDCSIADCVAFGGGTEVVVK
B2: VH32/VL21 (antibody, V domains shown)
VH: EVQVLESGGGLVQPGGSLRLSCAVSGFSLSSNAINWVRQAPGKGLEWVGYIAVSGNTYYASWAKGRFTISRDNSKNTVYLQMNSLRAEDTAVYYCGKSNIWGQGTLVTVSS
VL: AQVMTQSPSSLSASVGDRVTITCRSSQSVRTNKLAWFQQKPGQPPKRLIYSASTLDFGVPSRFSGSGSGTEFTLTISSLQPEDFATYYCLGYFDSSADIVAFGGGTKVEIK
B3: VH32/VL22 (antibody, V domains shown)
VH: B2 VH
VL: B2 VL with K33R, F57Y
B4: mAb 086 (antibody, V domains shown)
VH: B1 VH
VL: B1 VL

Tests used:
[1] = biological target: microtubuli associated tau; assay: ELISA, coated antigen
pTau(S422A) (human) = assay: Western blot on recombinant tau
[2] = biological target: keyhole limpet hemocyanin; assay: condition: 1:5 dilution of supernatant; about 1 to 3% of the maximal value; ELISA, single point

Row | Binder | binding [1] | binding (pTau(S422A) (human)) | binding [2]
1 | B1 | no binding | binds | –
2 | B2 | no binding | no binding (tested: 1 ug/ml) | –
3 | B3 | no binding | no binding (tested: 1 ug/ml) | –
4 | B4 | – | – | no binding
